Results deposited as PubChem BioAssay AID1671195 (Yale University, 2021)
Assay: 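Knockdowns that increase or decrease uptake of fluorescent LDL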 (primary screen). System: human Huh7 hepatoma cells. Reagents: siRNA pool against human genes, 18 nM. Duration: about 2 to 2.5 days of knockdown, then 8 h LDL uptake. Challenge: DiI-labelled LDL at 30 µg/ml for 8 h, in lipoprotein-deficient serum medium. Detection: 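Per-cell DiI-LDL intensity by automated imaging; well means scaled to the plate median and given as a robust z-score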. Scale: robust z-score: higher = more LDL uptake after knockdown. Rule for the call: 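Active when two or more replicates show a robust z-score above 2 or below -2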.
This is one part, drawn at random, of about 22,000 deposited reagents. Over the whole deposit, about 1,510 (6.9%) got an active call. 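Active includes knockdowns raising or lowering LDL uptake; positive z-scores mean more uptake, negative mean less.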 Entries without a mark were called inactive. Reagent sequences are not shown.

After knock-down of PIP5K1C (GeneID 23396) the results were robust z-score, replicate 1 = 0.56; robust z-score, replicate 2 = -0.0776; robust z-score, replicate 3 = 0.00158.
Against YBX2 (GeneID 51087), the values are robust z-score, replicate 1 = -1.21; robust z-score, replicate 2 = -0.989; robust z-score, replicate 3 = -0.805.
SLC38A9 (GeneID 153129) gave robust z-score, replicate 1 = -0.908; robust z-score, replicate 2 = 0.536; robust z-score, replicate 3 = -0.528.
Knock-down of SIAH2 (GeneID 6478) came out at: robust z-score, replicate 1 = 1.07; robust z-score, replicate 2 = 1.53; robust z-score, replicate 3 = -0.3.
After knock-down of GAS2L1P2 (GeneID 340508), the record shows robust z-score, replicate 1 = -0.837; robust z-score, replicate 2 = -0.262; robust z-score, replicate 3 = -1.01.
After knock-down of CD55 (GeneID 1604), the screen gave robust z-score, replicate 1 = -0.25; robust z-score, replicate 2 = -1.67; robust z-score, replicate 3 = -0.516.
After knock-down of GAR1 (GeneID 54433) the results were robust z-score, replicate 1 = -0.425; robust z-score, replicate 2 = -0.484; robust z-score, replicate 3 = 0.934.
For MOK (GeneID 5891) the deposit lists robust z-score, replicate 1 = 0.239; robust z-score, replicate 2 = 0.693; robust z-score, replicate 3 = 0.164.
CABYR (GeneID 26256) showed robust z-score, replicate 1 = 0.839; robust z-score, replicate 2 = 1.22; robust z-score, replicate 3 = 2.99.
PPP1R9B (GeneID 84687) showed robust z-score, replicate 1 = 0.0849; robust z-score, replicate 2 = -1; robust z-score, replicate 3 = 0.145.
SLC35H1 (GeneID 51006) scored robust z-score, replicate 1 = -0.936; robust z-score, replicate 2 = -0.911; robust z-score, replicate 3 = -0.832.
JUND (GeneID 3727) scored robust z-score, replicate 1 = -1.02; robust z-score, replicate 2 = -0.956; robust z-score, replicate 3 = -1.3.
